PubChem BioAssay AID504808 | Drosophila RNAi Screening Center – 2011

Purpose: 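Genes whose loss lifts activity of an E2F-responsive reporter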 (primary screen)
Cell system: Drosophila S2 cells
Reagents: long dsRNA against Drosophila genes
Measured: 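Dual luciferase plate measurements; E2F-specific signal taken as firefly over Renilla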
Scale: E2F firefly: higher = more E2F reporter activity; Renilla normaliser: higher = more normaliser reporter signal
Rule for the call: 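a knock-down counted as active when the firefly/Renilla E2F signal rose above 50%, a threshold chosen arbitrarily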
In all, the deposit lists about 21,000 reagents; this is a random part of those that have a named target and a result. In the full data, 18 (0.084%) were called active. 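Raw counts without plate normalisation, one of two replicates; the ratio scores behind the calls were not deposited.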 Unmarked entries are inactive. Reagents against one gene are numbered here. A plus sign joins genes that one reagent is predicted to hit. The record does not give: the amount of reagent, the time to read-out.

{"target":"Clamp (Chromatin-linked adaptor for MSL proteins)","reagent no.":1,"E2F firefly, rep 1":87487,"Renilla normaliser, rep 1":3992}
{"target":"CG2694","reagent no.":1,"E2F firefly, rep 1":1646,"Renilla normaliser, rep 1":920}
{"target":"CG7215 + Prx5","reagent no.":1,"E2F firefly, rep 1":1.50e5,"Renilla normaliser, rep 1":8079}
{"target":"CG7215 + Prx5","reagent no.":2,"E2F firefly, rep 1":85918,"Renilla normaliser, rep 1":5556}
{"target":"CG6380","reagent no.":1,"E2F firefly, rep 1":94290,"Renilla normaliser, rep 1":4571}
{"target":"CG33506","reagent no.":1,"E2F firefly, rep 1":113,"Renilla normaliser, rep 1":34}
{"target":"dUTPase (Deoxyuridine triphosphatase)","reagent no.":1,"E2F firefly, rep 1":81160,"Renilla normaliser, rep 1":3025}
{"target":"CG12523","reagent no.":1,"E2F firefly, rep 1":1.55e5,"Renilla normaliser, rep 1":7428}
{"target":"peo (pendolino)","reagent no.":1,"E2F firefly, rep 1":2719,"Renilla normaliser, rep 1":193}
{"target":"RpL31 (Ribosomal protein L31)","reagent no.":1,"E2F firefly, rep 1":94473,"Renilla normaliser, rep 1":5673}
{"target":"CG11977","reagent no.":1,"E2F firefly, rep 1":1.07e5,"Renilla normaliser, rep 1":6040}
{"target":"CG16711","reagent no.":1,"E2F firefly, rep 1":1.10e5,"Renilla normaliser, rep 1":6309}
{"target":"Idua (alpha-L-iduronidase)","reagent no.":1,"E2F firefly, rep 1":74417,"Renilla normaliser, rep 1":3799}

5 entries from above, reformatted:
target | reagent no. | E2F firefly, rep 1 | Renilla normaliser, rep 1
CG7215 + Prx5 | 1 | 1.50e5 | 8079
CG7215 + Prx5 | 2 | 85918 | 5556
CG6380 | 1 | 94290 | 4571
CG33506 | 1 | 113 | 34
dUTPase (Deoxyuridine triphosphatase) | 1 | 81160 | 3025

Next records follow.
{"target":"Prosalpha7 (Proteasome alpha7 subunit)","reagent no.":1,"E2F firefly, rep 1":2913,"Renilla normaliser, rep 1":92}
{"target":"wg (wingless)","reagent no.":1,"E2F firefly, rep 1":1.57e5,"Renilla normaliser, rep 1":5196}
{"target":"CG11722","reagent no.":1,"E2F firefly, rep 1":1.11e5,"Renilla normaliser, rep 1":7680}
{"target":"lqf (liquid facets)","reagent no.":1,"E2F firefly, rep 1":67091,"Renilla normaliser, rep 1":3522}
{"target":"sano (serrano)","reagent no.":1,"E2F firefly, rep 1":77910,"Renilla normaliser, rep 1":3557}
{"target":"CG10713","reagent no.":1,"E2F firefly, rep 1":1.43e5,"Renilla normaliser, rep 1":6760}
{"target":"bcd (bicoid)","reagent no.":1,"E2F firefly, rep 1":71246,"Renilla normaliser, rep 1":3118}
{"target":"HP5 (Heterochromatin protein 5)","reagent no.":1,"E2F firefly, rep 1":8397,"Renilla normaliser, rep 1":804}
{"target":"CG3281","reagent no.":1,"E2F firefly, rep 1":74493,"Renilla normaliser, rep 1":3450}
{"target":"CG34253","reagent no.":1,"E2F firefly, rep 1":1.25e5,"Renilla normaliser, rep 1":3933}
{"target":"Ugt302K1 (UDP-glycosyltransferase family 302 member K1)","reagent no.":1,"E2F firefly, rep 1":1.53e5,"Renilla normaliser, rep 1":6446}
{"target":"CG6277","reagent no.":1,"E2F firefly, rep 1":1.16e5,"Renilla normaliser, rep 1":6923}
{"target":"Balat (Beta-alanine transporter)","reagent no.":1,"E2F firefly, rep 1":3072,"Renilla normaliser, rep 1":171}
{"target":"GstE14 (Glutathione S transferase E14)","reagent no.":1,"E2F firefly, rep 1":98250,"Renilla normaliser, rep 1":4500}
{"target":"CG31496","reagent no.":1,"E2F firefly, rep 1":56917,"Renilla normaliser, rep 1":2854}
{"target":"Oli (Olig family)","reagent no.":1,"E2F firefly, rep 1":82074,"Renilla normaliser, rep 1":4136}
{"target":"EMC3 (ER membrane protein complex subunit 3)","reagent no.":1,"E2F firefly, rep 1":1.51e5,"Renilla normaliser, rep 1":4855}
{"target":"CG32110","reagent no.":1,"E2F firefly, rep 1":1.31e5,"Renilla normaliser, rep 1":3938}
{"target":"levy","reagent no.":1,"E2F firefly, rep 1":1.14e5,"Renilla normaliser, rep 1":4230}
{"target":"Trhn (Tryptophan hydroxylase neuronal)","reagent no.":1,"E2F firefly, rep 1":87824,"Renilla normaliser, rep 1":3830}
{"target":"CG10874","reagent no.":1,"E2F firefly, rep 1":1.81e5,"Renilla normaliser, rep 1":5638}
{"target":"CG31436","reagent no.":1,"E2F firefly, rep 1":1.14e5,"Renilla normaliser, rep 1":5630}
{"target":"mRpL48 (mitochondrial ribosomal protein L48)","reagent no.":1,"E2F firefly, rep 1":1.71e5,"Renilla normaliser, rep 1":5893}
